Results are given in words; binding and its absence hold for the method and conditions named. In cells and extracts the contact can be indirect. Some binding calls cover weakened binding; strength is not graded here. For part of these data: Where a sequence is shown, tags or fusion partners need not be part of it.

Amino acid sequences for entries named in this document (tags omitted).
UniProt P27986: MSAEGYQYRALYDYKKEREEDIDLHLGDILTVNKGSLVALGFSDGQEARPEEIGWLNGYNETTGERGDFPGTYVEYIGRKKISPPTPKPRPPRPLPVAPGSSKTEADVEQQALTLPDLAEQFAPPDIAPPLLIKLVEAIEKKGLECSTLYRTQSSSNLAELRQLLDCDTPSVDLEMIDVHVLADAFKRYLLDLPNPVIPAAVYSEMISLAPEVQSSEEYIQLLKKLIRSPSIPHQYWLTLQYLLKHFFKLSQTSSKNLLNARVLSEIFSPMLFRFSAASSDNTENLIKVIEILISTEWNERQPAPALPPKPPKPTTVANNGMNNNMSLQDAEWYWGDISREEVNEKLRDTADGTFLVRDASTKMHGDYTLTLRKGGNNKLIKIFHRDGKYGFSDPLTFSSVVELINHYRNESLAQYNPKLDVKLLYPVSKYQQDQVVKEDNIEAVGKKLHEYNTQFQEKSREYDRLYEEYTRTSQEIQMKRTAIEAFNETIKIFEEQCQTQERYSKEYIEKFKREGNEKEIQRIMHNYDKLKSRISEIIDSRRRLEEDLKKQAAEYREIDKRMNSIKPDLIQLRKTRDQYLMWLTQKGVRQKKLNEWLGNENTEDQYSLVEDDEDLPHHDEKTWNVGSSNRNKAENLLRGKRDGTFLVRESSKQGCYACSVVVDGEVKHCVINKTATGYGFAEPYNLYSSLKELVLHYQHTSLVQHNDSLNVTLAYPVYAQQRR

The values below come from publication PMC7599336.

Experiment [1] has as its target p85α (PIK3R1), Flag-tagged (pLenti7.3-PIK3R1-Flag), in HEK293 (UniProt P27986). Briefly: proximity ligation; HEK293 cells transfected with pLX302-PRR11-V5 and pLenti7.3-PIK3R1-Flag, V5 and Flag antibodies, Duolink In Situ Red.
For experiment [2] the target is unchanged. Kind of experiment: co-IP; HEK293 co-transduced with pLenti7.3-PIK3R1-Flag and pLX302-PRR11 WT or ΔPR; lysates precipitated with a Flag antibody (Dynabeads Protein G), immunoblot. A general note: Immunoblotting shows a protein as a band on a membrane.
The target in experiment [3] is p110α catalytic subunit of PI3K, endogenous in MDA-MB-175VII cells (human (endogenous in MDA-MB-175VII)), P42336. Kind of experiment: co-IP; MCF7 LTED (control or PRR11 siRNA) and MDA-MB-175VII (pLX302-LacZ or pLX302-PRR11) serum-starved 24 h, then 100 nM insulin for 10 min; lysates precipitated with a p110α antibody or IgG, immunoblot. To be noted: remark: other sources report otherwise.

B1: PRR11 wild type, V5-tagged (pLX302-PRR11-V5) (protein, UniProt Q96HE9 1-360)
chain: MPKFKQRRRKLKAKAERLFKKKEASHFQSKLITPPPPPPSPERVGISSIDISQSRSWLTSSWNFNFPNIRDAIKLWTNRVWSIYSWCQNCITQSLEVLKDTIFPSRICHRELYSVKQQFCILESKLCKLQEALKTISESSSCPSCGQTCHMSGKLTNVPACVLITPGDSKAVLPPTLPQPASHFPPPPPPPPLPPPPPPLAPVLLRKPSLAKALQAGPLKKDGPMQITVKDLLTVKLKKTQSLDEKRKLIPSPKARNPLVTVSDLQHVTLKPNSKVLSTRVTNVLITPGKSQMDLRKLLRKVDVERSPGGTPLTNKENMETGTGLTPVMTQALRRKFQLAHPRSPTPTLPLSTSSFDEQN
For B1, the binding entry in experiment [1] and in experiment [2] was “binds” throughout.

B2: insulin receptor substrate 1 (IRS1), endogenous, P35568 1-1242 (protein)
chain: MASPPESDGFSDVRKVGYLRKPKSMHKRFFVLRAASEAGGPARLEYYENEKKWRHKSSAPKRSIPLESCFNINKRADSKNKHLVALYTRDEHFAIAADSEAEQDSWYQALLQLHNRAKGHHDGAAALGAGGGGGSCSGSSGLGEAGEDLSYGDVPPGPAFKEVWQVILKPKGLGQTKNLIGIYRLCLTSKTISFVKLNSEAAAVVLQLMNIRRCGHSENFFFIEVGRSAVTGPGEFWMQVDDSVVAQNMHETILEAMRAMSDEFRPRSKSQSSSNCSNPISVPLRRHHLNNPPPSQVGLTRRSRTESITATSPASMVGGKPGSFRVRASSDGEGTMSRPASVDGSPVSPSTNRTHAHRHRGSARLHPPLNHSRSIPMPASRCSPSATSPVSLSSSSTSGHGSTSDCLFPRRSSASVSGSPSDGGFISSDEYGSSPCDFRSSFRSVTPDSLGHTPPARGEEELSNYICMGGKGPSTLTAPNGHYILSRGGNGHRCTPGTGLGTSPALAGDEAASAADLDNRFRKRTHSAGTSPTITHQKTPSQSSVASIEEYTEMMPAYPPGGGSGGRLPGHRHSAFVPTRSYPEEGLEMHPLERRGGHHRPDSSTLHTDDGYMPMSPGVAPVPSGRKGSGDYMPMSPKSVSAPQQIINPIRRHPQRVDPNGYMMMSPSGGCSPDIGGGPSSSSSSSNAVPSGTSYGKLWTNGVGGHHSHVLPHPKPPVESSGGKLLPCTGDYMNMSPVGDSNTSSPSDCYYGPEDPQHKPVLSYYSLPRSFKHTQRPGEPEEGARHQHLRLSTSSGRLLYAATADDSSSSTSSDSLGGGYCGARLEPSLPHPHHQVLQPHLPRKVDTAAQTNSRLARPTRLSLGDPKASTLPRAREQQQQQQPLLHPPEPKSPGEYVNIEFGSDQSGYLSGPVAFHSSPSVRCPSQLQPAPREEETGTEEYMKMDLGPGRRAAWQESTGVEMGRLGPAPPGAASICRPTRAVPSSRGDYMTMQMSCPRQSYVDTSPAAPVSYADMRTGIAAEEVSLPRATMAAASSSSAASASPTGPQGAAELAAHSSLLGGPQGPGGMSAFTRVNLSPNRNQSAKVIRADPQGCRRRHSSETFSSTPSATRVGNTVPFGAGAAVGGGGGSSSSSEDVKRHSSASFENVWLRPGELGGAPKEPAKLCGAAGGLENGLNYIDLDLVKDFKQCPQECTPEPQPPPPPPPHQPLGSGESSSTRRSSEDLSAYASISFQKQPEDRQ
B2: the binding entry in experiment [3] is recorded as “binds”.
